Experiment: peptide synthesis
Conditions: for cyclisation yield: cyclisation step, head-to-tail ring, sequence written open; for step yield: coupling step

Row | Substance | cyclisation yield | step yield
1 | Cycro(-N-Me-L-Gly-(R)-Oct-N-Me-L-Ala-(R)Hep-N-Me-L-Ala-(R)-Hep-N-Me-L-Ala-(R)-Hep-) | 75% | –
2 | N-Boc-N-Me-L-Ala-(R)-Hep-N-Me-L-Ala-(R)-Hep-N-Me-L-Ala-(R)-Hep(OBn) | – | 83%
3 | N-Boc-N-Me-L-Ala-(R)-Hep-N-Me-L-Ala-(R)-Hep(OBn) | – | 96%
4 | N-Boc-N-Me-L-Nle-(R)-Nna-N-Me-L-Ala-(R)-Hep-N-Me-L-Ala-(R)-Hep-N-Me-L-Ala-(R)-Hep(OBn) | – | 91%
5 | Cycro(-N-Me-L-Gly-(R)-Hep-N-Me-L-Gly-(R)-Hep-N-Me-L-Leu-(R)-Hep-N-Me-L-Leu-(R)-Hep-) | 67% | –
6 | N-Boc-N-Me-L-Gly-(R)-Hep-N-Me-L-Gly-(R)-Hep-N-Me-L-Leu-(R)-Hep-N-Me-L-Leu-(R)-Hep(OBn) | – | 71%

— patent US20170215422A1 (priority 2012, published 2017)
